# Reference: the supplement of paper PMC8728848
# This is one part of the list.
# B1: PX9961M-bvu-482-23-482 (Bacteroides vulgatus) (protein)
# chain: WLDLAPSTQVDTETSINVLSDIEFTLNGIYSTMQSSDAYSGRLVYYGDVTGDDMQAVSSTKRTGNYYRFNFTKDNGPSSHWSYLYSIIQNCNLILMNVDKLSIDEDETEYKNDLKGQALAIRGMALFDLTRIFGYPYLKDNGASLGVPIVKELSTIDSKPARNTVAECYTEIISDLKNSTELLSGDFNKGKVNRWAAMTLLSRVYLYKGEYNEALTMAENAIKGAEKEGYALWTNEEYPTAWGNDASASNPGEILFEIVNLTTDSPGKESMGYLNSYNGYDDMCITCSFYQLLKKDPKDVRLKILSFDKKYYAYVNKYQPQQGENITDANIPLIRLSEAYLNAAEAAVQTGDNAKAVKYLNSIVQRANPENSVEGKTLTLENVLDERRKELVAEGHRMYDVIRNGMTVKRIDVKDSDINKTKHNTAYMEYDWNFHKILLPIPKKEMDANPNMKQNPGYVD
# How the values were obtained:
# Assay in all cases: glycan array binding signal (z-score within array); higher = stronger binding
# Details in all cases: glycan notation: IUPAC condensed, linker removed
# [1] = molecular target: GalNAc3S(b1-4)[Fuc(a1-3)]GlcNAc
# Outline: (§1)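 Negative Z-scores can be read as non-binding. The Z-score is calculated within each array and then averaged across arrays of one protein sequence at different concentrations or buffers and across linkers. Arrays, 3228 in all, were curated from the Consortium for Functional Glycomics database and kept only where the protein sequence was available.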
# GalNAc4S6S(b1-4)GlcNAc = molecular target: GalNAc4S6S(b1-4)GlcNAc
# Outline: as §1
# GalNAc6S(b1-4)GlcNAc = molecular target: GalNAc6S(b1-4)GlcNAc
# Outline: as §1
# Glc(a1-4)Glc = molecular target: Glc(a1-4)Glc
# Outline: as §1
# [2] = molecular target: Glc(a1-4)Glc(a1-4)Glc(a1-4)Glc
# Outline: as §1
# Glc(a1-6)Glc(a1-6)Glc = molecular target: Glc(a1-6)Glc(a1-6)Glc
# Outline: as §1
# [3] = molecular target: Glc(a1-6)Glc(a1-6)Glc(a1-6)Glc
# Outline: as §1
# Glc(b1-4)Glc = molecular target: Glc(b1-4)Glc
# Outline: as §1
# Glc(b1-6)Glc = molecular target: Glc(b1-6)Glc
# Outline: as §1
# GlcA(b1-3)Gal = molecular target: GlcA(b1-3)Gal
# Outline: as §1
# GlcA(b1-3)GlcNAc = molecular target: GlcA(b1-3)GlcNAc
# Outline: as §1
# GlcA(b1-6)Gal = molecular target: GlcA(b1-6)Gal
# Outline: as §1
# [4] = molecular target: GlcA3S(b1-3)Gal(b1-4)GlcNAc(b1-2)Man
# Outline: as §1
# [5] = molecular target: GlcA3S(b1-3)Gal(b1-4)GlcNAc(b1-3)Gal(b1-4)Glc
# Outline: as §1
# [6] = molecular target: GlcNAc(a1-3)Gal(b1-4)GlcNAc
# Outline: as §1
# [7] = molecular target: GlcNAc(a1-4)Gal(b1-3)GlcNAc
# Outline: as §1
# [8] = molecular target: GlcNAc(a1-4)Gal(b1-4)GalNAc
# Outline: as §1
# [9] = molecular target: GlcNAc(a1-4)Gal(b1-4)GlcNAc
# Outline: as §1
# [10] = molecular target: GlcNAc(a1-4)Gal(b1-4)GlcNAc(b1-3)Gal(b1-4)Glc
# Outline: as §1
# [11] = molecular target: GlcNAc(a1-4)Gal(b1-4)GlcNAc(b1-3)Gal(b1-4)GlcNAc
# Outline: as §1
# [12] = molecular target: GlcNAc(a1-4)Gal(b1-4)GlcNAc(b1-3)Gal(b1-4)GlcNAc(b1-3)Gal(b1-4)GlcNAc
# Outline: as §1
# [13] = molecular target: GlcNAc(a1-4)Gal(b1-4)GlcNAc(b1-3)Gal(b1-4)[Fuc(a1-3)]GlcNAc(b1-3)Gal(b1-4)[Fuc(a1-3)]GlcNAc
# Outline: as §1
# [14] = molecular target: GlcNAc(a1-6)Gal(b1-4)GlcNAc
# Outline: as §1
# [15] = molecular target: GlcNAc(b1-2)Gal(b1-3)GalNAc
# Outline: as §1
# [16] = molecular target: GlcNAc(b1-2)Man(a1-3)[GlcNAc(b1-2)Man(a1-6)]Man(b1-4)GlcNAc(b1-4)GlcNAc
# Outline: as §1
# [17] = molecular target: GlcNAc(b1-2)Man(a1-3)[GlcNAc(b1-2)Man(a1-6)]Man(b1-4)GlcNAc(b1-4)[Fuc(a1-6)]GlcNAc
# Outline: as §1
# [18] = molecular target: GlcNAc(b1-2)Man(a1-3)[GlcNAc(b1-4)][GlcNAc(b1-2)Man(a1-6)]Man(b1-4)GlcNAc(b1-4)GlcNAc
# Outline: as §1
# [19] = molecular target: GlcNAc(b1-2)Man(a1-3)[GlcNAc(b1-4)][GlcNAc(b1-2)Man(a1-6)]Man(b1-4)GlcNAc(b1-4)[Fuc(a1-6)]GlcNAc
# Outline: as §1
# [20] = molecular target: GlcNAc(b1-2)[GlcNAc(b1-4)]Man(a1-3)[GlcNAc(b1-2)Man(a1-6)]Man(b1-4)GlcNAc(b1-4)GlcNAc
# Outline: as §1
# [21] = molecular target: GlcNAc(b1-2)[GlcNAc(b1-4)]Man(a1-3)[GlcNAc(b1-4)][GlcNAc(b1-2)Man(a1-6)]Man(b1-4)GlcNAc(b1-4)GlcNAc
# Outline: as §1
# [22] = molecular target: GlcNAc(b1-2)[GlcNAc(b1-4)]Man(a1-3)[GlcNAc(b1-4)][GlcNAc(b1-2)[GlcNAc(b1-6)]Man(a1-6)]Man(b1-4)GlcNAc(b1-4)GlcNAc
# Outline: as §1
# [23] = molecular target: GlcNAc(b1-2)[GlcNAc(b1-4)]Man(a1-3)[GlcNAc(b1-4)][GlcNAc(b1-2)[GlcNAc(b1-6)]Man(a1-6)]Man(b1-4)GlcNAc(b1-4)[Fuc(a1-6)]GlcNAc
# Outline: as §1
# [24] = molecular target: GlcNAc(b1-2)[GlcNAc(b1-6)]Man(a1-6)[GlcNAc(b1-2)Man(a1-3)]Man(b1-4)GlcNAc(b1-4)GlcNAc
# Outline: as §1
# [25] = molecular target: GlcNAc(b1-2)[GlcNAc(b1-6)]Man(a1-6)[GlcNAc(b1-2)Man(a1-3)]Man(b1-4)GlcNAc(b1-4)[Fuc(a1-6)]GlcNAc
# Outline: as §1
# [26] = molecular target: GlcNAc(b1-2)[GlcNAc(b1-6)]Man(a1-6)[GlcNAc(b1-4)][GlcNAc(b1-2)Man(a1-3)]Man(b1-4)GlcNAc(b1-4)GlcNAc
# Outline: as §1
# GlcNAc(b1-3)Fuc = molecular target: GlcNAc(b1-3)Fuc
# Outline: as §1
# GlcNAc(b1-3)Gal = molecular target: GlcNAc(b1-3)Gal
# Outline: as §1
# [27] = molecular target: GlcNAc(b1-3)Gal(b1-3)GalNAc
# Outline: as §1
binder,measurement,setting,value
B1,glycan array binding signal (z-score),[1],0.185
same,glycan array binding signal (z-score),GalNAc4S6S(b1-4)GlcNAc,-0.234
same,glycan array binding signal (z-score),GalNAc6S(b1-4)GlcNAc,-0.312
same,glycan array binding signal (z-score),Glc(a1-4)Glc,-0.306
same,glycan array binding signal (z-score),[2],-0.129
same,glycan array binding signal (z-score),Glc(a1-6)Glc(a1-6)Glc,-0.267
same,glycan array binding signal (z-score),[3],-0.604
same,glycan array binding signal (z-score),Glc(b1-4)Glc,-0.796
same,glycan array binding signal (z-score),Glc(b1-6)Glc,0.451
same,glycan array binding signal (z-score),GlcA(b1-3)Gal,-0.531
same,glycan array binding signal (z-score),GlcA(b1-3)GlcNAc,-0.533
same,glycan array binding signal (z-score),GlcA(b1-6)Gal,-0.315
same,glycan array binding signal (z-score),[4],0.097
same,glycan array binding signal (z-score),[5],-0.198
same,glycan array binding signal (z-score),[6],-0.238
same,glycan array binding signal (z-score),[7],0.01
same,glycan array binding signal (z-score),[8],-0.109
same,glycan array binding signal (z-score),[9],-0.43
same,glycan array binding signal (z-score),[10],-0.476
same,glycan array binding signal (z-score),[11],1.06
same,glycan array binding signal (z-score),[12],-0.106
same,glycan array binding signal (z-score),[13],1.06
same,glycan array binding signal (z-score),[14],-0.826
same,glycan array binding signal (z-score),[15],-0.274
same,glycan array binding signal (z-score),[16],-0.183
same,glycan array binding signal (z-score),[17],-0.253
same,glycan array binding signal (z-score),[18],-0.065
same,glycan array binding signal (z-score),[19],-0.454
same,glycan array binding signal (z-score),[20],-0.681
same,glycan array binding signal (z-score),[21],-0.235
same,glycan array binding signal (z-score),[22],0.041
same,glycan array binding signal (z-score),[23],-0.608
same,glycan array binding signal (z-score),[24],0.029
same,glycan array binding signal (z-score),[25],-0.618
same,glycan array binding signal (z-score),[26],0.246
same,glycan array binding signal (z-score),GlcNAc(b1-3)Fuc,0.451
same,glycan array binding signal (z-score),GlcNAc(b1-3)Gal,-0.666
same,glycan array binding signal (z-score),[27],0.559

# Reprinted from above for reference:
binder,measurement,setting,value
B1,glycan array binding signal (z-score),Glc(b1-6)Glc,0.451
same,glycan array binding signal (z-score),GlcA(b1-3)Gal,-0.531
